Among the data in PubChem BioAssay AID445 (National Center for Advancing Translational Sciences (NCATS), 2006) are AC50 values, retold here.

This is one part of the list. Shown are side measurements of this screen, not its main read-out; they come without a call. Compounds called inactive in the main read-out are mostly missing here. Words in brackets tell the shape of the fitted curve; partial curves, single points and poor fits give uncertain potencies.

This assay can be described thus: IkB Signaling. The conditions noted are these: ABC-DLBCL IkBa-CBG/CBR dual luciferase ratio (green luciferase fused to IkBa over red control in OCI-Ly3 lymphoma cells), 4 h; measured here: control luc red channel unless noted. Put shortly: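 Curves were fitted separately to fusion (green), unfused (red) and ratio luminescence, then classed by r2, magnitude and activity. Cells: OCI-Ly3, 4 h compound plus doxycycline at 37C; 10 uM MG-132 defined full response.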
With `Cc1ccc(NC(=O)C2(c3cccs3)CCOCC2)cc1Cl`, the AC50 was 0.158 µM [falling, full curve]. For `CC(=O)N1CCCc2cc(S(=O)(=O)N3CCCC(C(=O)N4CCN(c5cccc(Cl)c5)CC4)C3)ccc21` (centres undefined) the value was 10 µM [falling, partial curve, poor fit]; for `CCOc1cc2sc(N3CCC(C(=O)Nc4ccc(CC)cc4)CC3)nc2cc1Br`, 0.316 µM [falling, full curve]; for `CCOc1ccc(CNC(=O)c2cccc(NC(=O)N3CCSc4ncccc43)c2)cc1OC`, 12.6 µM [falling, partial curve]. For `CCc1ccc(C(=O)c2cn(CC(=O)Nc3ccc(Cl)cc3)c3cc4c(cc3c2=O)OCO4)cc1` the value was 3.98 µM [falling, partial curve]. For `Cc1ccc(C)c(CSc2nnc3[nH]c(=O)cc(C)n23)c1` the value was 0.2 µM [falling, full curve, poor fit]; for `O=C(CSc1nnc(-c2cccs2)o1)OC1CCCCC1`, 5.01 µM [falling, partial curve] [measured here: IkB-luc green channel]; for `CC(C)c1nn2c(=O)cc(COC(=O)c3cccc(NC(=O)COc4ccc(F)cc4)c3)nc2s1`, 0.316 µM [falling, full curve]. With `COc1ccc(C)cc1NC(=O)c1noc2c1CSc1ccccc1-2`, the AC50 was 10 µM [falling, partial curve].

On to `C=C(C)CN(CC)c1nc(N)c(C#N)c(CC#N)c1C#N`, for which the AC50 is 25.1 µM [falling, partial curve].

Turning to `COc1ccc(C2C(C(=O)Nc3ccccc3)=C(C)Nc3c(C(=O)Nc4ccccc4)cnn32)cc1` (centres undefined), the AC50 was 10 µM [falling, partial curve]. `CCCCNC(=O)c1nn(C)c2c1CSc1ccccc1-2`: the AC50 is 12.6 µM [falling, partial curve]. Next, `Cc1ccc(C(=O)c2cn(Cc3cccc(Cl)c3)c3nc(C)ccc3c2=O)cc1`: 20 µM [falling, partial curve, poor fit]; `Cn1cccc1Cc1nnc(SCC(=O)Nc2ccc3c(c2)OCCO3)n1-c1ccc(F)cc1`: 12.6 µM [falling, partial curve]; `Cc1cccc(N2C(=O)CC(c3ccc(F)cc3)C3=C2COC3=O)c1` (centres undefined): 39.8 µM [falling, single point]. Next, `CCOc1ccccc1N1CCN(Cc2cccc(OC)c2O)CC1`: 12.6 µM [falling, partial curve]; `CCCCCCn1nnc2sc(-c3ccccc3)cc2c1=O`: 39.8 µM [falling, single point]; `CCC1CN(C(=O)Nc2ccccc2F)c2cc(C)ccc2O1` (centres undefined): 31.6 µM [falling, partial curve].

Turning to `COc1cc(C)ccc1OCCSc1nc2ccc(NC(=O)c3ccco3)cc2s1`, the AC50 was 7.94 µM [falling, partial curve]. As for `COc1ccc(OC)c(NC(=O)CSc2nc(=O)n(CCN(C)C)c3c2CCC3)c1`, the AC50 was 20 µM [falling, partial curve]. Next, `Cc1cc(-c2cc(N)n(-c3ccccc3)n2)c(C)n1C1CCCC1`: 0.0398 µM [falling, full curve].

For `COc1cc(NC(=O)CC2C(=O)N(c3ccccc3)C(=O)N2Cc2ccc(F)cc2)cc(OC)c1` (centres undefined), the half-maximal activity concentration (AC50) is 31.6 µM [falling, single point]. In the case of `CCCOc1ccc(C2C(=O)N(C3CCCCCC3)CC(=O)N2Cc2ccccc2OC)cc1OC` (centres undefined), the AC50 is 31.6 µM [falling, partial curve]. Next, `CCCCCn1c(CCNC(=O)c2cccs2)nc2ccccc21`: 25.1 µM [falling, partial curve].

For `CC1CCc2c(sc(NC(=O)Cc3ccccc3)c2C(=O)Nc2ccc(Cl)cc2)C1` (centres undefined), the AC50 is 0.501 µM [falling, full curve, poor fit]. Next, `Cc1ccc(-c2nn3c(-c4ccccc4C)nnc3c3ccccc23)cc1`: 0.794 µM [rising, full curve]; `CC(C)c1nnc(NC(=O)c2c(O)c3cccc4c3n(c2=O)CCC4)s1`: 0.1 µM [falling, full curve].

For the compound `CCOC(=O)c1ccc(CC(=O)c2oc3cc(O)ccc3c2C)o1`, the half-maximal activity concentration (AC50) is 31.6 µM [falling, single point].

`O=C(CCNS(=O)(=O)c1ccc2c(c1)CCCC(=O)N2)Nc1cccc(Cl)c1`: the AC50 is 0.0158 µM [falling, full curve, poor fit]. Regarding `Cc1cc(NC(=O)CCc2nc3cccnc3n2-c2ccccc2)ccc1Br`, the half-maximal activity concentration (AC50) is 15.8 µM [falling, partial curve]. Take `O=C(Cn1nnc(-c2ccncc2)n1)N(C1CCCCC1)C1CCCCC1`: the AC50 is 15.8 µM [falling, partial curve]. For `Cc1ccccc1NC(=O)Cn1cc(C(=O)c2ccco2)c2ccccc21` the value was 31.6 µM [falling, partial curve]; for `Cc1ccccc1Cn1ccc(NC(=O)CCSc2nc(-c3ccco3)cc(C(F)(F)F)n2)n1`, 10 µM [falling, partial curve]; for `CCc1ccc2nc(N(Cc3cccnc3)C(=O)c3ccc(C#N)cc3)sc2c1`, 0.0251 µM [rising, full curve, poor fit].

`CCOC(=O)CSc1nc2ccccc2c(=O)n1NC(=O)c1ccccc1`: the AC50 was 12.6 µM [falling, partial curve]. In the case of `Cn1nccc1C(=O)OCC(=O)Nc1nc(-c2ccccc2)cs1`, the AC50 was 0.0631 µM [falling, full curve]. For `CCCCC(=O)Nc1ccc2nc(SCC(=O)N3CCc4ccccc43)sc2c1` the value was 7.94 µM [falling, full curve]. For `CN1C(=O)CSc2ccc(NC(=O)NCCC3=CCCCC3)cc21` the value was 39.8 µM [falling, single point].

As to `CCOc1ccc(-n2cc(-c3ccccc3)c3c(NCCc4ccccc4)ncnc32)cc1`, the AC50 is 1 µM [rising, partial curve]. Next, `Cc1ccc(Nc2ccc3cc(S(=O)(=O)N4CCC(C)CC4)ccc3n2)c(Cl)c1`: 3.16 µM [rising, full curve].

For `O=C(CCc1ccccc1)Nc1ccc(Cl)cn1`, the AC50 was 12.6 µM [falling, partial curve].

Regarding `CCOC(=O)N1CCc2c(sc3c2c(=O)n(Cc2ccccc2)c(=O)n3CC(=O)Nc2cccc(CC)c2)C1`, the concentration at half-maximal activity (AC50) was 6.31 µM [falling, partial curve]. For `Cc1noc(-c2ccc(-c3noc(-c4ccc(F)cc4)n3)cc2)n1` the value was 2.51 µM [rising, partial curve]; for `O=C(CCCn1c2ccccc2c(=O)c2ccccc21)Nc1cccc(Cl)c1`, 10 µM [falling, partial curve]; for `COc1cccc(CNC(=O)c2cc3c(-c4ccccc4F)nn(C)c3s2)c1`, 3.98 µM [falling, full curve]. For `O=C(NCCc1ccc(Cl)cc1)c1c2c(nc3ccccc13)C(=O)N(C1CCCCC1)C2` the value was 20 µM [falling, single point]. Next, `O=S(=O)(c1ccc(Br)s1)N1CCN(c2cccc(C(F)(F)F)c2)CC1`: 6.31 µM [falling, partial curve]; `COCCn1c(SCC(=O)Nc2cc(Cl)ccc2OC)nc2c([nH]c3ccccc32)c1=O`: 0.01 µM [rising, full curve, poor fit].

In the case of `COc1ccc(CCNC(=O)CCSc2nc(-c3ccco3)cc(C(F)(F)F)n2)cc1OC`, the concentration at half-maximal activity (AC50) was 25.1 µM [falling, partial curve]. For `COc1cccc(NC(=O)NC2(C(F)(F)F)Oc3ccccc3O2)c1` the value was 12.6 µM [falling, partial curve]; for `COc1ccc(CC(=O)Nc2c(C(=O)N3CCN(c4ccccc4)CC3)oc3ccccc23)cc1OC`, 15.8 µM [falling, partial curve]; for `COc1cc(C(CC(=O)Nc2ccc(C)c(F)c2)N2Cc3ccccc3C2=O)cc(OC)c1OC` (centres undefined), 0.0631 µM [rising, full curve, poor fit]. Next, `CCN(CC)c1ncnc2c1cnn2-c1cc(Cl)ccc1C`: 25.1 µM [falling, single point]. Next, `O=C1OCC2=C1C(c1cccc(Cl)c1)CC(=O)N2c1ccc(C(F)(F)F)cc1` (centres undefined): 12.6 µM [falling, single point]; `CCOc1ccccc1NC(=O)C1CCN(S(=O)(=O)c2c(C)noc2/C=C/c2ccco2)CC1`: 25.1 µM [rising, partial curve, poor fit]; `COc1cc(OC)cc(-c2cc3nc(C)c(CCC(=O)NCCc4cccc(C)c4)c(C)n3n2)c1`: 15.8 µM [falling, single point].

With `COc1cc(NC(=O)Cn2nc(C(F)(F)F)c3c2CCC3)cc(OC)c1OC`, the AC50 was 10 µM [falling, partial curve]. Next, `COc1ccc(OC)c(CNC(=O)c2ccc(N3Cc4ccccc4Oc4ncccc43)s2)c1`: 1.58 µM [falling, full curve]; `COc1cccc(-c2nnc(SCc3ccc(C#N)cc3)n2Cc2ccco2)c1`: 12.6 µM [falling, partial curve]. On to `COc1ccccc1OCc1ccc(C(=O)Nc2ccncc2)o1`, for which the AC50 is 10 µM [falling, partial curve]. Next, `COc1ccc2[nH]c3c(c2c1)CCN(C(=O)CCC1CCCC1)C3c1ccc(F)cc1` (centres undefined): 25.1 µM [falling, single point]; `Cc1cccc(Cn2c(-c3ccccc3)nc3ccccc32)c1`: 20 µM [falling, single point]. On to `O=C(CSc1nccn1-c1ccc(F)cc1)Nc1nc2ccccc2s1`, for which the AC50 is 20 µM [falling, partial curve]. Next, `O=C(CC1N=C2c3ccccc3N=C(SCc3ccc(F)cc3)N2C1=O)NCCc1ccccc1` (centres undefined): 7.94 µM [falling, single point].
